For 116 substances, growth estimate results are on record in the supplement of paper PMC5949888.

Most values lie at the floor of the assay. Slopes are relative: functional sequences can read slightly below zero.

This series has as its system Saccharomyces cerevisiae PS128 hsf1 delta, HSF1(1-493) fusion. Kind of series: growth estimate (transactivation domain function in HSF1 fusion, heat-shock survival) (a.u. (slope of normalised read count over time)); higher = stronger growth at 37°C, i.e. more transactivation activity. The settings on record: library: random library.
Consider CIFCIVRRMTVGRDGTRRWP, for which the growth estimate was less than -0.25.
Under SKA stands less than -0.25; under TTSPHPKVHE, less than -0.25.
With ARWVSSPILTGGCVIAGSTI, the growth estimate was less than -0.25.
Consider VLHTGQLSVQVPLLGV, for which the growth estimate was less than -0.25.
To RVTTGVNRNSVRFVG belongs less than -0.25; to ARVPFLSGAQNDGPTPKASL, less than -0.25; to RIGRLSN, less than -0.25.
To HLLLRGIAGRHKHCLGVRRR belongs less than -0.25; to KSRELAIVTVM, less than -0.25.
To LSLARSQ belongs less than -0.25.
Regarding VMF, the growth estimate was less than -0.25.
To QYLGGHSPVRLPFRRTALLL belongs less than -0.25.
To LHLALVIRRCISCKAADPPG belongs less than -0.25; to EVIIGYDRSTRETLA, less than -0.25.
To TFSPQDHDILPGSMASP belongs -0.138.
For GKSRTDSRAIQRGVATISRG, the growth estimate was less than -0.25.
To ACKPSL belongs less than -0.25; to MYWYWRCNYRIWRVTTINVA, less than -0.25.
As to IVARFIKMALFE, the growth estimate is -0.246.
Turning to GVPLNAMVARKGNRRSLQRS, the growth estimate was -0.237.
To VFLQIRRIP belongs less than -0.25; to LQIWASFSGRSAWRR, less than -0.25; to WFIYDVFSGWETGYWKGFIS, less than -0.25.
Take SNLNGTTS: the growth estimate is less than -0.25.
Under ANQVVALQ stands less than -0.25; under ILQDSQL, less than -0.25.
To VSWVRVVQSEGIQCS belongs less than -0.25; to DQRSSRRRTILWTFAS, less than -0.25.
Under TRKLGSEFGFD stands less than -0.25; under VKVWSVDLRFDMGVPGYVVG, less than -0.25; under RIKGLRPETRLVAAGCTFSL, less than -0.253.
As for SSRYRNLASHTLYMDVFSCT, the growth estimate was less than -0.25.
Under FEVMSTFVAETRRHIVSL stands less than -0.25; under YMGLRKCDVDTDTVMLCESS, less than -0.25; under FGMRRRIGHRMTRSRKRRII, less than -0.25.
Under HLRPGTQGVGANFQADRRRT stands less than -0.25; under GSSQMCCNTTRSEDP, -0.245; under KLLVIQQFTVGFYRAVRSTE, less than -0.25.
Under FMSVRL stands less than -0.25; under GGAEHLAVSGGRASHPESRQ, less than -0.25; under CCLTLGISSRGYVSGPRVEE, less than -0.25.
For the substance TSSNSHKDVGRLSPAVELSV, the growth estimate is less than -0.25.
For the substance LRSTANGRALIGQMVPSRMR, the growth estimate is less than -0.25.
Consider VWYEDH, for which the growth estimate is less than -0.25.
Under LRPCAMGGTNTSSQLPVSRG stands less than -0.25; under VLSGDRCSYARTSLIIQFRT, less than -0.25; under PHL, less than -0.25.
With WTAEF, the growth estimate was less than -0.25.
To VVKSQKLPSFGWRRPFSFRQ belongs less than -0.25; to DRGITVVHFR, less than -0.25.
To LYALVTFRD belongs less than -0.25; to APRLGR, less than -0.25; to RDQPAK, less than -0.25.
To PFSNVRTRPGAKATSVHHWG belongs less than -0.25.
As for VDPSI, the growth estimate is less than -0.25.
Under GMSGSPVLEARGKRSGGGGR stands less than -0.25; under LSTGCEEVQTERARNHNAAR, less than -0.25.
Under PRGRCRGPVYRSS stands less than -0.25.
To YLGVAECNPAHAGQSV belongs less than -0.25; to GLSIACATLPW, less than -0.25; to LTLTALLLQPHPLALQMG, less than -0.25.
For HLDEAGLRQSFQSRRVFFSQ, the growth estimate is less than -0.25.
Under VKRNGI stands less than -0.25; under TCSQIVVPCGVGLIRGRRL, less than -0.25; under VVRAPD, less than -0.25.
Under PLLGSSSRTQVGPL stands less than -0.25.
Consider SYARSCGLRYGGRLSQLCTR, for which the growth estimate was less than -0.25.
Under TEPVRLGLLRGRTSNRQSEK stands less than -0.25; under CCRRYSLRVHRDQMS, less than -0.25.
Under GVYCLRR stands less than -0.25.
Consider PGLLPHVGETDCYLVRFRIL, for which the growth estimate was less than -0.25.
KSEAKGTA: the growth estimate was less than -0.25.
RPPDSTSRAASNAASVLI: the growth estimate is less than -0.25.
Under YGLF stands less than -0.25; under NSFEYDVMLSSGDSCKNGRV, less than -0.25; under SVIN, less than -0.25.
TGIDIKTSSQRTCVFAAWLA: the growth estimate is less than -0.25.
On to FFAPQNGFMLLQIELACLRL, for which the growth estimate is less than -0.25.
Turning to SFGLPGSWSVFWADEAAGLN, the growth estimate was -0.0303.
To LSPLIISRHKFAEFIT belongs less than -0.25; to VATTLCVSRFDYSLGSGNVT, less than -0.25.
To GFVLRGPGTGRSKVVKLPSM belongs less than -0.25; to LRTCRASAGPTAVN, less than -0.25; to MTLNKYEFISQKHIISGFSR, less than -0.25.
Under LLRELAETTRYCVGVRIRYY stands less than -0.25; under TGMESALFYVVLNTSFARIW, less than -0.25; under RELEIYLCQ, less than -0.25.
Take HGSPTGALRFFNPLMFGGCI: the growth estimate was less than -0.25.
Under YYRV stands -0.205; under DRSHY, less than -0.25.
To IRKIEQGLLRRSDTTSFRTG belongs less than -0.25.
Regarding PSSII, the growth estimate is -0.248.
Under NVRCTVERIEGLLI stands less than -0.25.
To GNSIAWMGLPCACRGRVGLL belongs less than -0.25; to FGFT, less than -0.25; to QTEQP, less than -0.25.
To VSSPVISLLLVGTLGKDRAR belongs less than -0.25.
As for TSYTLA, the growth estimate is less than -0.25.
In the case of GVNSMIRIGVCRNREILSHL, the growth estimate is less than -0.25.
Under VPY stands less than -0.25; under GTLGTT, less than -0.25; under ADLNVECCAATNTVTYTYLA, less than -0.25.
Turning to LIGVDMIGSRGGTC, the growth estimate is -0.188.
Take ASAWSWRDTVYSPPGE: the growth estimate was less than -0.25.
SCLLEADHLKPVSSRLNSGG: the growth estimate is less than -0.25.
Under NPLCILLITHWPHGYVVTGL stands less than -0.25; under SGSEGYGSCAF, less than -0.25; under MAR, less than -0.25.
In the case of KGDGPRTGQVLRPAPGESSE, the growth estimate is less than -0.25.
For RVNGRVKSV, the growth estimate is less than -0.25.
On to QGIPDGIRRQTT, for which the growth estimate was less than -0.25.
KRQGSPR: the growth estimate was less than -0.25.
To RWLKET belongs less than -0.25.
Consider KGETVAARNAVTPAMRRGYA, for which the growth estimate is less than -0.25.
Take SRADSFRLVRDRRT: the growth estimate is less than -0.25.
